Assay results: article PMC12244780

Protein sequences, listed by entry. Tags and fused reporters are not part of them.
UniProt O75369: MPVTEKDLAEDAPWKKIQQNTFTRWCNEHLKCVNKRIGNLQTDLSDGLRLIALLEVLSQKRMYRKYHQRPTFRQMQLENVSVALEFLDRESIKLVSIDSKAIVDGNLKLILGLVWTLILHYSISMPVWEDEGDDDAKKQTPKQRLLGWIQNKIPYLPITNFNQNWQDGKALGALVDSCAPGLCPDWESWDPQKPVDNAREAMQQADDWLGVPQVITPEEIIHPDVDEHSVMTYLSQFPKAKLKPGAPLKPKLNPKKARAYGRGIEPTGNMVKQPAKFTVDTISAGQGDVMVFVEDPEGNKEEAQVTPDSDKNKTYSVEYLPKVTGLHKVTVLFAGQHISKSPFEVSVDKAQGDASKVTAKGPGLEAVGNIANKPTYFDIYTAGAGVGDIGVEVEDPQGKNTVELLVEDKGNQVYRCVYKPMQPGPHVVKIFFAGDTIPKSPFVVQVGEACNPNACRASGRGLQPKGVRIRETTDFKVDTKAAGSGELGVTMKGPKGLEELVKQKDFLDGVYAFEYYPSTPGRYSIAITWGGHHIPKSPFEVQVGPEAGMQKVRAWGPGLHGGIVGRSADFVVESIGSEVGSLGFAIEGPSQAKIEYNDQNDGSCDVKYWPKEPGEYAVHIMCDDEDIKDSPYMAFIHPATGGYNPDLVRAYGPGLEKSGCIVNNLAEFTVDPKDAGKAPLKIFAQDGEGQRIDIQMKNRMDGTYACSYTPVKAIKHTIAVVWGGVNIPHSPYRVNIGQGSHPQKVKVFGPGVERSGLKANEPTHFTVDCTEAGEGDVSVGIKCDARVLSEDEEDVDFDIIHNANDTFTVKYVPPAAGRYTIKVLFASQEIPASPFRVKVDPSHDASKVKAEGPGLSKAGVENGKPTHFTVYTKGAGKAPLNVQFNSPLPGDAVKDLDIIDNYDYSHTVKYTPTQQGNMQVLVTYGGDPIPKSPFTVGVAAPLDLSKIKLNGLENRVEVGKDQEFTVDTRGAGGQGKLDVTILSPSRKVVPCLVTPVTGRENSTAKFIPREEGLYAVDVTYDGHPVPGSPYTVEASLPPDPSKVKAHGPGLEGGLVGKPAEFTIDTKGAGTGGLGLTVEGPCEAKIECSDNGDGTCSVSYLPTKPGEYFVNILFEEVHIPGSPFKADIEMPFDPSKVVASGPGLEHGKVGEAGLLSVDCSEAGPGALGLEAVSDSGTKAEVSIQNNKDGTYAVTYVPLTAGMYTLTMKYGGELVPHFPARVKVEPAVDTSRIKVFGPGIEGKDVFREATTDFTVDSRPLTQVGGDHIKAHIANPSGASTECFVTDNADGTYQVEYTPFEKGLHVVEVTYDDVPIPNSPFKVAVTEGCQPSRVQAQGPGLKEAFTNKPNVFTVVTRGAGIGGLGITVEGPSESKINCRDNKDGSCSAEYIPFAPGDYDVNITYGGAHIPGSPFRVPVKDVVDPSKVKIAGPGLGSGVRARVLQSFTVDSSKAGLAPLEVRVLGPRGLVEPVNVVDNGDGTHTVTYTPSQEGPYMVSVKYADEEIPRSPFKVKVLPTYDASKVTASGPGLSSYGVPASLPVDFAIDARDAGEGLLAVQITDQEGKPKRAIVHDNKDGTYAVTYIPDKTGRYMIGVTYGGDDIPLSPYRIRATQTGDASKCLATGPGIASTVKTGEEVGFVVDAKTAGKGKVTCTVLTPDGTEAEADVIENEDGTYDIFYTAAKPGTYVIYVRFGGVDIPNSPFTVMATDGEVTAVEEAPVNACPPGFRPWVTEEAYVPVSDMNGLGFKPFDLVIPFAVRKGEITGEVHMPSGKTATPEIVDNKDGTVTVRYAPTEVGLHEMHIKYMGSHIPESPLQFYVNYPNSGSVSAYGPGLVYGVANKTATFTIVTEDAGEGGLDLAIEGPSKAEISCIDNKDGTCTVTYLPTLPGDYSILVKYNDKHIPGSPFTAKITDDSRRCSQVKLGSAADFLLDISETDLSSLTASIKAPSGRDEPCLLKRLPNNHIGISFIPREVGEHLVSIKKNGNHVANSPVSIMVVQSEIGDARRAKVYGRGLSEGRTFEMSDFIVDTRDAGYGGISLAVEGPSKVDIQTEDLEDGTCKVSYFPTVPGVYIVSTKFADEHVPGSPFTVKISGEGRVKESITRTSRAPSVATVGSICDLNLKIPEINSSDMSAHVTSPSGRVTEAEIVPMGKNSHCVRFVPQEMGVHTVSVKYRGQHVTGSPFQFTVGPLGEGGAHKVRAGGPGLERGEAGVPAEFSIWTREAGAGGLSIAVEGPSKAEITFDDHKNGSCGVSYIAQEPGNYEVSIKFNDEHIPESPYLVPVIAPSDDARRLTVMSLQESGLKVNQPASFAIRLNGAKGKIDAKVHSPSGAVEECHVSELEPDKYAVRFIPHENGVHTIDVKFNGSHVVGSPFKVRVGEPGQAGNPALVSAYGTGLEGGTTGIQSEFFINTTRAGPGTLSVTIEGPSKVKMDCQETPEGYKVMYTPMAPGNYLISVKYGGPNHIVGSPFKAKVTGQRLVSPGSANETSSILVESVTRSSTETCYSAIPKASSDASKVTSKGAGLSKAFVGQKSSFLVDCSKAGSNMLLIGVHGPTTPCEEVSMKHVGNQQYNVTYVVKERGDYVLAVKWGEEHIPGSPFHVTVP

Target: T1, Flag-MTMR7 (myotubularin-related protein 7) (UniProt Q9Y216)
T1 sequence: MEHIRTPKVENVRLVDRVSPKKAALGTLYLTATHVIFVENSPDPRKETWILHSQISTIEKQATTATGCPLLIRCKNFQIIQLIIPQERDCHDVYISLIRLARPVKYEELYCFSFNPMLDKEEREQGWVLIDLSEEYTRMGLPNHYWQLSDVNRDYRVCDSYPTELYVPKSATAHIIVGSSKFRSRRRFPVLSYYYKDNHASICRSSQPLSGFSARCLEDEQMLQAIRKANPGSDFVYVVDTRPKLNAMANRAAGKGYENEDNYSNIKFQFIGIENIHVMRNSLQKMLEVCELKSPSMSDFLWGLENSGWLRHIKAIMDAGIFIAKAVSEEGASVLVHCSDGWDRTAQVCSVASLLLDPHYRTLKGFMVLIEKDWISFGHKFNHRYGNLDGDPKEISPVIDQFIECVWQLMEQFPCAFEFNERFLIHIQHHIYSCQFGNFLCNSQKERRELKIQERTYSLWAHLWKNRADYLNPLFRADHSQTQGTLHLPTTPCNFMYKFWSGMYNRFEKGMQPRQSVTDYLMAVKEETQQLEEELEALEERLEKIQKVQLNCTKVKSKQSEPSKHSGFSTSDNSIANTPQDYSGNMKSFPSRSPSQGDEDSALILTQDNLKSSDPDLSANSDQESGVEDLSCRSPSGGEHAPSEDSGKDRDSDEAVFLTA
Assay: affinity purification with mass spectrometry; lysate of SSCs transfected with Flag-MTMR7 or empty vector; pre-cleared with protein A/G magnetic beads; anti-Flag magnetic beads overnight at 4°C; washed with PBS and RIPA; PAGE, in-gel digestion, LC-MS/MS

binding: binds
Substance: filamin B (FLNB) (from UniProt O75369 1-2602)

Results are given in words; binding and its absence hold for the method and conditions named. Binding seen in cells or lysates may run through a third protein. A yes stands for co-enrichment or nearness to the bait. Other partners may have been found. Where a sequence is shown, tags or fusion partners need not be part of it.
